The values below come from publication PMC7862700.

The chains behind the UniProt entries cited, without tags or fusion partners. Where a name states a change or a piece, a line headed by the entry shows the natural chain unless it says otherwise.
UniProt Q00613: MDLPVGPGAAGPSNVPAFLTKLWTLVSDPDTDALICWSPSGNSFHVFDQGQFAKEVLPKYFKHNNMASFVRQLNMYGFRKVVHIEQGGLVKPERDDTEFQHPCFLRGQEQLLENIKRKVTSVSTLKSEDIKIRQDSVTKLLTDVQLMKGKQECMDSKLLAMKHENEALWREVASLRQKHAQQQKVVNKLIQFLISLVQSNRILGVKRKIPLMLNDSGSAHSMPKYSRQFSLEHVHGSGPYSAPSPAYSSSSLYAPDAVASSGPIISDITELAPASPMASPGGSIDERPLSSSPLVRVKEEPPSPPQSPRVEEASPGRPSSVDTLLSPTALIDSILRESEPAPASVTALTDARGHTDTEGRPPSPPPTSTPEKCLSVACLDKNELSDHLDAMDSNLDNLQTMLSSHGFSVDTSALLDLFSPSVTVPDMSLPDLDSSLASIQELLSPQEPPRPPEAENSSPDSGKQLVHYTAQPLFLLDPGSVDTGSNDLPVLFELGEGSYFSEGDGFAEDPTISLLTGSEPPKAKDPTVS

One test deals with HSF1 (UniProt Q00613). Put plainly: DAPPL (digital affinity profiling via proximity ligation, sequencing). As to conditions: 10 mM Tris-HCl pH 7.5, 50 mM NaCl, 1 mM DTT, 4% glycerol, room temperature, 30 min; GST-TFs on glutathione beads, 16-mer random dsDNA library, 0.1% …; high values mean tight binding; double strand, one strand shown; scale: fold enrichment (6-mer frequency, TF over GST control).

The next test concerns the target T1, ELF2 (UniProt Q15723).
T1 sequence: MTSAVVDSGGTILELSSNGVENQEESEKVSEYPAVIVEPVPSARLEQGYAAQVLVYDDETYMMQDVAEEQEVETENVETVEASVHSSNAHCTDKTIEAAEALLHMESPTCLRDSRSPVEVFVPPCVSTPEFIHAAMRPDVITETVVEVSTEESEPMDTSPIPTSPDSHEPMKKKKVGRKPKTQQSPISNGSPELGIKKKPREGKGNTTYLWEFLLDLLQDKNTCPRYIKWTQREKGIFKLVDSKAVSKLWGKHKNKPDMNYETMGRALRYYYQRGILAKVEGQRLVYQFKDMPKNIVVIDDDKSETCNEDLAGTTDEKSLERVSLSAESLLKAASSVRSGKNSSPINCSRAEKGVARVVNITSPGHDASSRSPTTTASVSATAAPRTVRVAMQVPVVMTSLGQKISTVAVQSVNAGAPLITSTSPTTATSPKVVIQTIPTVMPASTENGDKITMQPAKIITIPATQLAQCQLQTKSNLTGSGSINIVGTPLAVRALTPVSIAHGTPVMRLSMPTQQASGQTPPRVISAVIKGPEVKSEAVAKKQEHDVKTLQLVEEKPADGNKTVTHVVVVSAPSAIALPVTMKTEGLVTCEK
The description is as above. As to conditions: 10 mM Tris-HCl pH 7.5, 50 mM NaCl, 1 mM DTT, 4% glycerol, room temperature, 30 min; GST-TFs on glutathione beads, 16-mer random dsDNA library, 0.1% …; high values mean tight binding; double strand, one strand shown; scale: fold enrichment (6-mer frequency, TF over GST control).

The entries are a selection whose mix differs from that of the whole data set. For some assays here: At the low end of the ranking the order means little. Some of the results follow. For some assays here: The exact form of the protein is not confirmed.

Turning to GGCGAT, the binding signal was found to be 0.855 in the test with HSF1 and 0.798 with ELF2.
On the same counts, the results for GTGCAA are 0.764 and 0.955.
On the same counts, the results for GCCGTA are 0.727 and 0.759.
On the same counts, the results for GCGTAA are 0.914 and 0.838.
As to TACCGT, the binding signal was 0.618 with HSF1 and 0.658 with ELF2.
On the same counts, the results for GAGCGC are 0.457 and 0.573.
Turning to GGTGAC, the binding signal with HSF1 stood at 0.579; with ELF2, 0.755.
For GGGACT, the binding signal was found to be 0.634 with HSF1 and 0.658 in the test with ELF2.
On the same counts, the results for GTCCGA are 0.743 and 0.812.
Regarding GGACCA, the binding signal is 0.658 with HSF1 and 0.726 in the test with ELF2.
For CCTAGT, in that order: 0.916 and 0.905.
Turning to CGAGGA, the binding signal with HSF1 is 0.717; in the test with ELF2 it was 0.675.
For AGGCTG, in that order: 0.653 and 0.651.
For the sequence AGGACT, the binding signal stood at 0.863 with HSF1 and 0.925 with ELF2.
Turning to GTGCCA, the binding signal came out at 0.655 with HSF1 and 0.748 with ELF2.
On the same counts, the results for GTCGAG are 0.585 and 0.417.
On the same counts, the results for GAGCTG are 0.696 and 0.722.
On the same counts, the results for CGCATT are 0.792 and 0.837.
For GGCAAA, the binding signal in the test with HSF1 worked out at 0.902; in the test with ELF2, 0.879.
For ACGAGT, in that order: 0.717 and 0.707.
As to ACGGTG, the binding signal in the test with HSF1 amounted to 0.475; with ELF2, 0.506.
For GGTCGT, in that order: 0.475 and 0.581.
For the sequence GATCGG, the results for the binding signal in the test with HSF1 and with ELF2 were 0.451 and 0.483, respectively.
For the sequence TTCGTG, the figures for the binding signal with HSF1 and with ELF2 were 1.1 and 0.872, respectively.
As for CGGAGT, the binding signal with HSF1 is 0.267; with ELF2 it was 0.317.
For CCAGCG, in that order: 0.631 and 0.598.
On the same counts, the results for ACCAGC are 0.831 and 0.789.
On the same counts, the results for GGCATC are 0.687 and 0.872.
As for GCGTAC, the binding signal is 0.728 with HSF1 and 0.873 in the test with ELF2.
On the same counts, the results for GAGGAT are 0.786 and 0.578.
GACGCC: the binding signal with HSF1 was found to be 0.664; with ELF2 it was 0.809.
For AGGACG, in that order: 0.404 and 0.468.
For TCAGTG, in that order: 0.746 and 0.718.
CCGTCG: the binding signal in the test with HSF1 was found to be 0.79; with ELF2, 0.737.
For AGCCGG, in that order: 0.423 and 0.667.
For ACTGAG, in that order: 0.734 and 0.737.
Regarding GCGGGG, the binding signal in the test with HSF1 was 0.379; in the test with ELF2, 0.429.
For the sequence TAGCCG, the binding signal with HSF1 amounted to 0.805; in the test with ELF2, 0.881.
For AGTCTA, in that order: 0.891 and 0.72.
Consider ACAGAC, for which the binding signal in the test with HSF1 was determined as 0.694; with ELF2 it was 0.775.
GAGTAG: the binding signal with HSF1 stood at 0.463; with ELF2, 0.481.
On the same counts, the results for GACCAC are 0.663 and 0.825.
On the same counts, the results for GCGAGG are 0.577 and 0.584.
For the sequence GTCAGA, the binding signal with HSF1 is 0.606; with ELF2 it was 0.636.
For the sequence CCAGAC, the binding signal was 0.858 with HSF1 and 0.645 in the test with ELF2.
For GGGGTC, in that order: 0.516 and 0.619.
In the case of CCAGGA, the binding signal is 0.519 with HSF1 and 0.866 with ELF2.
GACCCT: the binding signal with HSF1 was 0.795; in the test with ELF2 it was 0.895.
For TGTGAA, in that order: 0.729 and 0.818.
For GTGCGG, in that order: 0.541 and 0.713.
For GTGGGC, in that order: 0.517 and 0.682.
In the case of ACGTGC, the values for the binding signal in the test with HSF1 and with ELF2 were 0.593 and 0.659, respectively.
For GAGGCC, in that order: 0.368 and 0.391.
As to AGTCGT, the binding signal worked out at 0.317 with HSF1 and 0.366 in the test with ELF2.
On the same counts, the results for GACTCA are 0.87 and 0.905.
On the same counts, the results for CAGCGG are 0.325 and 0.466.
As for AGACAA, the binding signal with HSF1 came out at 0.79; in the test with ELF2, 0.791.
For ATAGAG, the values for the binding signal with HSF1 and with ELF2 were 0.886 and 0.905, respectively.
On the same counts, the results for CAGTAG are 0.616 and 0.593.
For ACGGGT, in that order: 0.719 and 0.824.
For TGACAG, in that order: 0.801 and 0.912.
Turning to GGAACC, the binding signal with HSF1 stood at 0.715; with ELF2 it was 1.
On the same counts, the results for GTCAGT are 0.482 and 0.589.
On the same counts, the results for ATCCAG are 1.53 and 0.878.
For AGCAGT, in that order: 0.623 and 0.712.
Take AGCGGA: the binding signal with HSF1 came out at 0.473; with ELF2 it was 0.991.
For GGGGTG, in that order: 0.504 and 0.599.
For GATGTG, in that order: 0.62 and 0.947.
For GAACAG, in that order: 0.964 and 1.01.
On to CAAGCG, for which the binding signal came to 0.822 with HSF1 and 0.87 with ELF2.
For GAGCGT, in that order: 0.337 and 0.348.
On the same counts, the results for GCGCGG are 0.684 and 0.856.
On the same counts, the results for GGCGGT are 0.31 and 0.412.
Regarding GACTGG, the binding signal with HSF1 was found to be 0.658; in the test with ELF2, 0.571.
For GGTGAA, in that order: 0.694 and 0.736.
For TCGCAG, in that order: 0.831 and 0.875.
For GACTGT, in that order: 0.425 and 0.418.
CGGAAT: the binding signal in the test with HSF1 is 0.916; with ELF2, 1.13.
Consider ACCATG, for which the results for the binding signal with HSF1 and in the test with ELF2 were 0.741 and 0.791, respectively.
